Source: patent US11051513B2, “Pyridone compounds and agricultural and horticultural fungicides containing the same as active ingredients” (MITSUI CHEMICALS AGRO, INC., priority 2017, dated 2021)
Some results were stated once for a whole list of compounds, not compound by compound.

Tests used:
Magnaporthe grisea = type: in vivo; conditions: 250 ppm sprayed (2.5 ml/pot) on rice (Sachikaze); disease development 6 to 10 days after inoculation
Botrytis cinerea = experiment: Test Example B: Gray mold on tomato; conditions: 250 ppm sprayed (2.5 ml/pot) on tomato (Oogata Fukuju); disease development 2 to 3 days after inoculation
[1] = test system: Colletotrichum orbiculare; experiment: Test Example H: Anthracnose on cucumber; conditions: 250 ppm sprayed (2.5 ml/pot) on cucumber (Sagami Hanjiro); disease development 6 to 10 days after inoculation
Alternaia brassicicola = experiment: Test Example C: Alternaria sooty spot on cabbage; conditions: 250 ppm sprayed (2.5 ml/pot) on cabbage (Shikidori); disease development 2 to 3 days after inoculation
[2] = test system: Blumeria graminis f. sp. hordei; experiment: Test Example D: Powdery mildew on barley; conditions: 250 ppm sprayed (2.5 ml/pot) on barley (Akashinriki); disease development 6 to 10 days after inoculation
Puccinia recondita = experiment: Test Example E: Brown rust on wheat; type: in vivo; conditions: 250 ppm sprayed (2.5 ml/pot) on wheat (Norin 61); disease development 7 to 10 days after inoculation

Measured: control value

CCn1c(-c2ccc(F)cc2)c(-c2c(F)cccc2F)ccc1=O [compound 280]
> 50%: all assays above

CCn1c(-c2ccc(F)cc2)c(-c2cc(F)ccc2Br)cc(Br)c1=O [compound 518]
> 50%: all assays above

O=c1c(Br)cc(-c2cccc(F)c2Cl)c(-c2ccc(F)cc2)n1CC(F)F [compound 462]
> 50%: all assays above

CCOc1ccc(-c2c(-c3cc(F)cc(F)c3Cl)cc(Br)c(=O)n2CC)cc1 [compound 167]
> 50%: all assays above

Cn1c(-c2ccc(F)cc2)c(-c2cc(F)cc(F)c2Cl)cc(Br)c1=O [compound 26]
> 50%: all assays above

O=c1c(Cl)cc(-c2ccc(F)cc2Cl)c(-c2ccccc2)n1CC(F)F [compound 510]
> 50%: all assays above

O=c1c(Br)cc(-c2cc(F)ccc2Br)c(-c2ccc(F)cc2)n1CC(F)F [compound 515]
> 50%: all assays above

CCn1c(-c2ccc(F)cc2)c(-c2ccccc2Br)cc(Cl)c1=O [compound 212]
> 50%: all assays above

CCn1c(-c2ccc(F)cc2)c(-c2ccccc2F)cc(Cl)c1=O [compound 275]
> 50%: all assays above

O=c1c(Cl)cc(-c2cc(F)cc(F)c2Cl)c(-c2ccccc2)n1CC(F)F [compound 71]
> 50%: all assays above

CCn1c(-c2ccc(F)cc2)c(-c2ccc(C)cc2Cl)cc(Cl)c1=O [compound 398]
> 50%: all assays above

COc1ccc(-c2c(-c3cc(F)cc(F)c3Br)cc(Cl)c(=O)n2C)cc1 [compound 261]
> 50%: all assays above

Cn1c(-c2ccc(F)cc2)c(-c2c(F)cccc2F)ccc1=O [compound 278]
> 50%: all assays above

O=c1c(Cl)cc(-c2cccc(F)c2Cl)c(-c2ccc(F)cc2)n1CC(F)F [compound 461]
> 50%: all assays above

O=c1c(Br)cc(-c2ccccc2Cl)c(-c2ccc(F)cc2)n1C=C(F)F [compound 436]
> 50%: all assays above

CCn1c(-c2ccc(F)cc2)c(-c2ccccc2Cl)cc(Cl)c1=O [compound 147]
> 50%: all assays above

O=c1c(Br)cc(-c2cc(F)cc(F)c2Br)c(-c2ccccc2)n1CC(F)F [compound 432]
> 50%: all assays above

CCn1c(-c2cc(F)cc(F)c2)c(-c2ccccc2Cl)ccc1=O [compound 202]
> 50%: all assays above

O=c1c(Br)cc(-c2ccccc2Br)c(-c2ccccc2)n1CC(F)F [compound 534]
> 50%: all assays above

O=c1ccc(-c2ccc(F)cc2Cl)c(-c2ccc(F)cc2)n1CC(F)F [compound 497]
> 50%: all assays above

CCn1c(-c2ccc(F)cc2)c(-c2cccc(OC)c2Cl)cc(Cl)c1=O [compound 96]
> 50%: all assays above

CCn1c(-c2ccc(F)cc2)c(-c2cc(OCC(F)(F)F)ccc2Cl)cc(Cl)c1=O [compound 245]
> 50%: all assays above

Cc1ccccc1-c1cc(Br)c(=O)n(CC(F)F)c1-c1ccc(F)cc1 [compound 529]
> 50%: all assays above

O=c1ccc(-c2cc(F)cc(F)c2Br)c(-c2ccccc2)n1CC(F)F [compound 430]
> 50%: all assays above

O=c1ccc(-c2cc(F)ccc2Cl)c(-c2ccccc2)n1CC(F)F [compound 443]
> 50%: all assays above

CCn1c(-c2ccccc2)c(-c2cc(C)ccc2C)ccc1=O [compound 464]
> 50%: all assays above

CCn1c(-c2ccc(F)cc2)c(-c2c(F)cccc2F)cc(Br)c1=O [compound 279]
> 50%: all assays above

O=c1c(Cl)cc(-c2ccccc2Br)c(-c2ccc(F)cc2)n1CC(F)F [compound 521]
> 50%: all assays above

CCn1c(-c2ccc(OC)cc2)c(-c2cc(F)cc(F)c2Cl)ccc1=O [compound 28]
> 50%: all assays above

CCOc1ccc(-c2c(-c3cc(F)cc(F)c3Cl)cc(Cl)c(=O)n2CC)cc1 [compound 166]
> 50%: all assays above

CCn1c(-c2ccc(F)cc2)c(-c2cc(F)ccc2Br)cc(Cl)c1=O [compound 517]
> 50%: all assays above

O=c1c(Cl)cc(-c2cc(F)ccc2Br)c(-c2ccc(F)cc2)n1CC(F)F [compound 516]
> 50%: all assays above

CN1C(=O)CCC(c2ccc(F)cc2Cl)=C1c1ccc(F)cc1 [compound 344]
> 50%: all assays above
